Test results reported in article PMC7386655, “Spontaneous mutations that confer resistance to 2-deoxyglucose act through Hxk2 and Snf1 pathways to regulate gene expression and HXT endocytosis” (PLoS Genetics, 2020).
Results are given in words; binding and its absence hold for the method and conditions named. Some entries that bind do so weakly or less than the wild type.

Chains of the proteins cited; added tags and fusions are not shown. Lines headed by an entry give the natural chain unless they say otherwise; changes in a name come on top.
UniProt P32598: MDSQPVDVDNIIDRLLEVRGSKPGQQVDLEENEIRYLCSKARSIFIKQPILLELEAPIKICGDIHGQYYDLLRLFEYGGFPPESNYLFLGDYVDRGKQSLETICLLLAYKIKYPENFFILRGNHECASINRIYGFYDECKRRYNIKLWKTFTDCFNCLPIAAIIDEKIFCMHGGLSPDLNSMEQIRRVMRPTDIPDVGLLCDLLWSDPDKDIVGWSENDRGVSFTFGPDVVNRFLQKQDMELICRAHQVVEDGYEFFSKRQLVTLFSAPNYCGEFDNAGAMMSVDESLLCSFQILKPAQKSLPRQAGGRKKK

T1: Snf1 (S. cerevisiae) (UniProt P06782)
T1 sequence: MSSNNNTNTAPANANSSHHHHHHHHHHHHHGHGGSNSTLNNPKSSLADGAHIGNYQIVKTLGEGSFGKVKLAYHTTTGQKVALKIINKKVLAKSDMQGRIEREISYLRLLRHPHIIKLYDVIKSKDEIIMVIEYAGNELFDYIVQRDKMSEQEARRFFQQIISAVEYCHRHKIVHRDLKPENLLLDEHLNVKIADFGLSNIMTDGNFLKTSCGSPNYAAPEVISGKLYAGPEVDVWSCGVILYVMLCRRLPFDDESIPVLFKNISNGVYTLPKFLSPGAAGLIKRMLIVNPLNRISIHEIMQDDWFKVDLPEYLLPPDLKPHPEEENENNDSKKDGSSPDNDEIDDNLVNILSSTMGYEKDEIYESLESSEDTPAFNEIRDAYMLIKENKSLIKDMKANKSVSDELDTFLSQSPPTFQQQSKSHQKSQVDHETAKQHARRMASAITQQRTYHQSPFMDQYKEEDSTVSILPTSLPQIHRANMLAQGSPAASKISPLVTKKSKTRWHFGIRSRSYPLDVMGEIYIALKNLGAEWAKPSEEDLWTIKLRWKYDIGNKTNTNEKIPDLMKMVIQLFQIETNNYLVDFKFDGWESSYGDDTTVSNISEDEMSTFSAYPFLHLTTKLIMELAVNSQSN


Key:
Assay in all cases: two-hybrid; yeast two-hybrid; growth on medium with 2% glucose lacking histidine, GAL1-HIS3 reporter; Snf1 and Glc7 fused to the Gal4 DNA binding domain (pGBT9), Reg1 fused to the Gal4 activation domain (pACT2)
Glc7 (S. cerevisiae) = Glc7 (S. cerevisiae) (UniProt P32598)
[1] = target: Glc7-Q48K (S. cerevisiae) (UniProt P32598)
Snf1 (S. cerevisiae) = target: T1, Snf1 (S. cerevisiae)

binding (Glc7 (S. cerevisiae))	binding [1]	binding (Snf1 (S. cerevisiae))	Binder
binds	binds	binds	Reg1 (protein, UniProt Q00816 1-1014) MSTNLANYFAGKKDIENEHVNRNASHESNSKSDVKISGNDNDNDEDMGPSVSMAVQAKNDDDFHKSTFNLKRTRSMGLLDEYIDPTKKLLGRSDDLYDNDNEYYDNSSNNSSSNSSDDDYDDGYQEHSTSVSPPPADNDSYLIPQDDNDVVVEPERHVDYLSHEWKESEISNSWKYIILKKKKRDVDLVNAARLENASWRTWAKARNNLKTVSPEVVNWSKDSDVTWLYGPIVRDSEGNAQSEEEHDLERGYGSDDENSKRISMPTKNSKSIAAAPKPILKKRTVTEIIEDNALWKLNEARKHMTEMKHASVIMDPNGNKNVHDDFDALAAQVNAQYYHYPKESNSSVSLKSQHSDKKDNSTIPNPVGENSNGGGDKGEEDLHLKSALHVQNNRSTAQSNKSILENSTNDRKANLDQNLNSPDNNRFPSSTSSSNRDNENNSMGLSSILTSNPSEKSNKPTKNRHIHFNDRVEQCMALRYPASQSEDDESDDENKQYVDVNNNANVTTINNNRTPLLAIQHKSIPINSATEHLNKNTSDDDTSSQSSSSSHSDDEEHGGLYINARFSRRSDSGVHSPITDNSSVASSTTSRAHVRPIIKLLPDTTLNYGSDEESDNGEFNGYGNAVSHNVNTSRGYDYIYDYNSVYTGDTSSFLPVDSCDIVDVPEGMDLQTAIADDNASNYEFNNAVESKEKHVPQLHKASANNTTRQHGSHMLLYDDDNYSSSSDSEQQFIEDSQYNSSDDEEEEDDDDQEVDDNHDEGLSLRRTLSLGKSGSTNSLYDLAQPSLSSATPQQKNPTNFTGGKTDVDKDAQLAVRPYPLKRNSSSGNFIFNSDSEEESSSEEEQRPLPANSQLVNRSVLKGSVTPANISSQKKKALPKQPKASDSSQSFRIVNNTPSPAEVGASDVAIEGYFSPRNESIKSVVSGGNMMDHQDHSEMDTLAKGFENCHINNASKLKDKKVDSVQTTRKEASLTDSSNESLHKVVQNARGMASKYLHSWKKSDVKPQENGNDSS
		binds	Reg1-P231L (protein, UniProt Q00816 1-1014) MSTNLANYFAGKKDIENEHVNRNASHESNSKSDVKISGNDNDNDEDMGPSVSMAVQAKNDDDFHKSTFNLKRTRSMGLLDEYIDPTKKLLGRSDDLYDNDNEYYDNSSNNSSSNSSDDDYDDGYQEHSTSVSPPPADNDSYLIPQDDNDVVVEPERHVDYLSHEWKESEISNSWKYIILKKKKRDVDLVNAARLENASWRTWAKARNNLKTVSPEVVNWSKDSDVTWLYGLIVRDSEGNAQSEEEHDLERGYGSDDENSKRISMPTKNSKSIAAAPKPILKKRTVTEIIEDNALWKLNEARKHMTEMKHASVIMDPNGNKNVHDDFDALAAQVNAQYYHYPKESNSSVSLKSQHSDKKDNSTIPNPVGENSNGGGDKGEEDLHLKSALHVQNNRSTAQSNKSILENSTNDRKANLDQNLNSPDNNRFPSSTSSSNRDNENNSMGLSSILTSNPSEKSNKPTKNRHIHFNDRVEQCMALRYPASQSEDDESDDENKQYVDVNNNANVTTINNNRTPLLAIQHKSIPINSATEHLNKNTSDDDTSSQSSSSSHSDDEEHGGLYINARFSRRSDSGVHSPITDNSSVASSTTSRAHVRPIIKLLPDTTLNYGSDEESDNGEFNGYGNAVSHNVNTSRGYDYIYDYNSVYTGDTSSFLPVDSCDIVDVPEGMDLQTAIADDNASNYEFNNAVESKEKHVPQLHKASANNTTRQHGSHMLLYDDDNYSSSSDSEQQFIEDSQYNSSDDEEEEDDDDQEVDDNHDEGLSLRRTLSLGKSGSTNSLYDLAQPSLSSATPQQKNPTNFTGGKTDVDKDAQLAVRPYPLKRNSSSGNFIFNSDSEEESSSEEEQRPLPANSQLVNRSVLKGSVTPANISSQKKKALPKQPKASDSSQSFRIVNNTPSPAEVGASDVAIEGYFSPRNESIKSVVSGGNMMDHQDHSEMDTLAKGFENCHINNASKLKDKKVDSVQTTRKEASLTDSSNESLHKVVQNARGMASKYLHSWKKSDVKPQENGNDSS
